# From the supplement of paper PMC4840960
# Counter-ions that a name gives are not always drawn. This is one part of the list. Part of the spread comes from offsets between plates or batches.
# System: E18 rat cortical neuron-glia co-culture
# Test: total nuclei (DAPI) / Olig2+ nuclei (ratio); higher = more depletion of OPC/OL lineage cells
# Details: 1 µM; treatment time: 8 days (DIV5-DIV13)
row,SMILES,total nuclei
1,CCCC(=O)O[C@]1(C(=O)COC(=O)CC)CC[C@H]2[C@@H]3CCC4=CC(=O)CC[C@]4(C)[C@H]3[C@@H](O)C[C@@]21C [Hydrocortisone buteprate],2.77
2,CC(N/C(=N\C#N)Nc1ccncc1)C(C)(C)C (centres undefined) [Pinacidil],2.7
3,CC(=O)Oc1ccccc1C(=O)Nc1ncc([N+](=O)[O-])s1 [Nitazoxanide],2.95
4,COC1=C(OC)C(=O)C(CCCCCCCCCCO)=C(C)C1=O [Idebenone],3.65
5,CC(C)NCC(O)COc1cccc2[nH]ccc12 (centres undefined) [Pindolol],4
6,CC(C)NCC(O)COc1ccc(CC(N)=O)cc1 (centres undefined) [Atenolol],2.89
7,Oc1ccc(/C=C/c2cc(O)cc(O)c2)cc1 [Resveratrol],3.7
8,CCC1=C[C@@H]2CN(C1)Cc1c([nH]c3ccccc13)[C@@](C(=O)OC)(c1cc3c(cc1OC)N(C)[C@H]1[C@@](O)(C(=O)OC)[C@H](OC(C)=O)[C@]4(CC)C=CCN5CC[C@]31[C@@H]54)C2 [Vinorelbine],14.6
9,CC1=C(/C=C/C(C)=C/C=C/C(C)=C\C(=O)O)C(C)(C)CCC1 [Isotretinoin],3.8
10,CC(C)Cc1ccc(C(C)C(=O)O)cc1 (centres undefined) [Ibuprofen],3.64
11,COC(=O)Nc1nc2cc(C(=O)c3ccccc3)ccc2[nH]1 [Mebendazole],12.7
12,c1ccc2c(c1)CCCC2C1=NCCN1 (centres undefined) [Tyzine],4.24
13,Cc1c(C(=O)NN2CCCCC2)nn(-c2ccc(Cl)cc2Cl)c1-c1ccc(I)cc1,3.39
14,Cc1ccc(NC(=O)c2ccc(CN3CCN(C)CC3)cc2)cc1Nc1nccc(-c2cccnc2)n1 [Imatinib mesylate],6

# Quoted from above: compounds 1–2
row,SMILES,total nuclei
1,CCCC(=O)O[C@]1(C(=O)COC(=O)CC)CC[C@H]2[C@@H]3CCC4=CC(=O)CC[C@]4(C)[C@H]3[C@@H](O)C[C@@]21C [Hydrocortisone buteprate],2.77
2,CC(N/C(=N\C#N)Nc1ccncc1)C(C)(C)C (centres undefined) [Pinacidil],2.7
